# Measured values as given in PubChem BioAssay AID2685 (National Center for Advancing Translational Sciences (NCATS), 2010).
# The campaign covered roughly 320,000 compounds. About 2,100 (0.66%) were called active. Inconclusive results, whose numbers are uncertain, are shown with a selection of clear calls. Calls follow the shape of the dose curve; as a rule, active = well fitted inhibition curve with a large enough effect in the signal ratio, with a control signal flat (not every such curve was filed as active); inconclusive = small, poorly fitted or top-dose-only effect, or effect the other way, or a change in a side signal; inactive = flat fitted curve, though single readings scatter; the % refers to the signal ratio. A potency beside an inconclusive call is a rough fit, not a confirmed value.
# Assay: qHTS Assay for Lipid Storage Modulators in Drosophila S3 Cells
# Conditions: BODIPY lipid droplet fluorescence, 18-24 h, cells fed with added oleic acid; lipid storage change, negative = inhibition: at 46.1 µM (top of the series) unless noted
# How it was run: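 Drosophila S3 cells got compounds at several concentrations plus oleic acid (400 uM solution). Laser-scanning cytometry with 488 nm excitation read lipid droplets at 500-530 nm and cells at 575-640 nm. Percent activity was relative to 20 uM Triacsin C.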
# % is scaled to controls: 0 for no effect and ±100 for the full control effect; potency is read from the fitted curve at half-maximal effect.
SMILES,"lipid storage change, negative = inhibition",Potency,outcome
CCN=C1S/C(=C\c2ccc(Sc3ccc(Cl)cc3)o2)C(=O)N1CC,inactive: 21.1%,–,–
CCC(=O)N1CCN(c2ccccc2NC(=S)NC(=O)c2ccco2)CC1,inconclusive: -38.5%,–,–
CCOCCc1nnc(NC(=O)C2CC(=O)N(c3ccc(OCC)cc3)C2)s1 (stereo not given),–,"inconclusive: 29.1 µM [falling, single point]",–
CC(C)CN1CCN(Cc2cccc3cccnc23)CC1CCO (stereo not given),–,"inconclusive: 25.9 µM [activator, single point]",–
S=C(Nc1ccccc1)N(Cc1ccccc1)Cc1ccncc1,inconclusive: 19%,–,–
COc1ccc(Nc2nc(NCc3ccco3)nc(N3CCOCC3)n2)cc1,inconclusive: 15.4%,–,–
Cc1nc2c(cnn2-c2ccc(Cl)cc2)c(=O)n1-c1ccc(N2CCC(C)CC2)cc1,–,"inconclusive: 29.1 µM [falling, partial curve, poor fit]",–
CCCCNC(=S)Nc1cccc(S(=O)(=O)NC2=NCCC2)c1,inconclusive: 36.7%,–,–
CC(=O)Nc1cccc(C(=O)OCC(=O)c2ccc(S(=O)(=O)N3CCCCC3)cc2)c1,inconclusive,–,–
CC(=O)c1ccc(S(=O)(=O)N(C)CC(=O)Nc2cc(C)on2)cc1,–,"inconclusive: 2.91 µM [falling, single point]",–
O=C(/C=C/Nc1ccccc1)C(F)(F)F,inconclusive: -16.8%,–,–
O=C(Nc1cccc(Cl)c1)Nc1ccc2nccnc2c1,–,"inconclusive: 29.1 µM [cytotoxic, single point]",–
Cc1oc2cc(O)ccc2c(=O)c1Oc1ccccc1Br,inconclusive: -11.9%,–,–
Cc1cccc2nc(CSc3ncccc3C(=O)O)cn12,inconclusive: 71.1%,–,–
COCCN(C(=O)COC(=O)c1ccc(Cl)nc1)c1c(N)n(Cc2ccccc2)c(=O)[nH]c1=O,inconclusive,–,–
CC(C)c1cccc(C(C)C)c1NC(=O)CN(C)C1CCS(=O)(=O)C1 (stereo not given),–,"inconclusive: 29.1 µM [falling, single point]",–
CC1CCCCC1NC(=O)COC(=O)c1ccc2c(c1)OCCO2 (stereo not given),inconclusive: 11.1%,–,–
Cc1cccc(OCC(=O)OC2CCN(C)CC2)c1,inconclusive: 5.13%,–,–
CC1(C)COC2(OC1)C(=O)N(CN1CCOCC1)c1ccccc12,inconclusive: 13.4%,–,–
S=C(c1ccc(Br)cc1)N1CCCC1,inconclusive: -12.8%,–,–
Cc1ccc(C)c(NC(=O)c2cnn(-c3ccccc3)c2C)c1,–,"inconclusive: 0.58 µM [falling, single point]",–
CCC1(c2ccccc2)NC(=O)N(CC(=O)Nc2ccc(OC)nc2)C1=O (stereo not given),inconclusive: 10%,–,–
Cc1cc(C)cc(N/C(N)=N/c2nc(C)cc(C)n2)c1,inconclusive: 19.8%,–,–
O=C(OCCNc1ncc(C(F)(F)F)cc1Cl)c1ccc(S(=O)(=O)N2CCOCC2)cc1,–,"inconclusive: 6.51 µM [falling, single point]",–
O=[N+]([O-])c1ccc(Cl)cc1Sc1nc2ccccc2o1,inconclusive: -10.5%,–,–
Cc1ccc(NC(=O)C2CCN(C(=O)NCc3ccccc3)CC2)cc1C,inconclusive: -46.8%,–,–
O=C(CC(c1cccs1)S(=O)(=O)c1ccccc1)c1ccc(F)cc1 (stereo not given),–,"inconclusive: 29.1 µM [falling, single point]",–

SMILES,"lipid storage change, negative = inhibition",Potency,outcome
O=C(Nc1ccccc1C(=O)NC(Cc1ccccc1)C(=O)O)c1ccccc1 (stereo not given),inconclusive: -18.1%,–,–
O=S(=O)(c1cnc(Cl)c(Cl)c1)N1CCc2ccccc21,inconclusive: 0.833%,–,–
O=C(/C=C/c1ccc(OCc2cccc(Cl)c2)cc1)N1CCOCC1,inconclusive: 18.6%,–,–
COc1ccc(CCC(=O)Nc2nnc(C(C)(C)C)s2)cc1,–,"inconclusive: 6.51 µM [falling, single point]",–
Cc1nn(-c2cc(C)c3ccccc3n2)c2c1CCC2,–,"inconclusive: 3.26 µM [activator, partial curve, poor fit]",–
Cc1ccc(C)c(C(=O)C(C)OC(=O)CN2C(=O)NC3(CC(C)CC(C)(C)C3)C2=O)c1 (stereo not given),–,"inconclusive: 1.3 µM [falling, partial curve]",–
CCOC(=O)c1nc(N)c(=O)n(-c2ccccc2)n1,inconclusive: 10.8%,–,–
O=C(Nc1ccc(S(=O)(=O)NCC2CCCO2)cc1)c1ccccc1 (stereo not given),–,"inconclusive: 32.6 µM [falling, single point]",–
Cc1ccc(CNS(=O)(=O)c2ccc3c(c2)N(C)CCO3)cc1,inconclusive: 17.3%,–,–
CCCCCCCCNC(=O)CC(NS(=O)(=O)c1ccc(NC(C)=O)cc1)C(C)C (stereo not given),inconclusive: 0.255%,–,–
C=CCN(C(=O)CSc1nnnn1C)c1nc(-c2ccccc2)cs1,–,"inconclusive: 29.1 µM [rising, single point]",–
COc1ccc(CN(C)C(=O)Cn2ccc(NC(=O)OCc3ccccc3)nc2=O)cc1OC,–,"inconclusive: 29.1 µM [cytotoxic, single point]",–
Cc1ccc(C)c(NC(=O)CN(C)C(=O)CN2C(=O)NC3(CCc4ccccc43)C2=O)c1 (stereo not given),inconclusive: 3.11%,–,–
CCC(=O)c1ccc(OCCN2CCOCC2)cc1,inconclusive: -24.7%,–,–
C/C(=N\NC(=O)CN1CCOCC1)C(C)(C)C,inconclusive: -14.3%,–,–
Nc1ncc(S(=O)(=O)c2ccc(Cl)cc2)c(N)n1,–,–,inactive [at 46.1 µM]
CCOc1nc(OCC)nc(N2CCC(C)CC2)n1,inconclusive: -30.4%,–,–
Cc1ccc(C(=O)Nc2cccc(C(=O)NC3CCCC3)c2)cc1,–,active: 14.6 µM,–
COc1ccc(Cc2nnc(NC(=O)Nc3ccccc3)s2)cc1OC,inconclusive: -0.27%,–,–
CCc1ccc(OCC(=O)N/N=C(\C)c2ccc(-n3ccnc3)cc2)cc1,inconclusive: 20%,–,–
CC(C)(C)c1ccc(C(=O)NCCC(=O)Nc2ccc(S(=O)(=O)Nc3nccs3)cc2)cc1,inconclusive,–,–
Cc1nnc(N2C(=O)C(=O)/C(=C(\O)c3ccc4c(c3)CC(C)O4)C2c2ccccc2)s1 (stereo not given),inconclusive: 35.6%,–,–
CC1(C)CC(=O)C(C2C3=C(CC(C)(C)CC3=O)Oc3ccccc32)C(=O)C1 (stereo not given),inconclusive: -48.2%,–,–
O=C(Nc1nccs1)c1ccc(COc2ccccc2)o1,–,"inconclusive: 18.4 µM [activator, single point]",–
COc1ccc(-c2c(C)nc(N)nc2-c2ccc(OCc3ccc(C)cc3)cc2O)cc1OC,inconclusive: 37.5%,–,–
COCC(C)n1c(C)cc(C(=O)COC(=O)c2ccc3c(c2)NC(=O)CS3)c1C (stereo not given),inconclusive: 15.6%,–,–
COc1ccc(C(C(=O)NCC2CCCO2)N(Cc2ccco2)C(=O)c2snc(C(N)=O)c2N)cc1OC (stereo not given),inconclusive: 14%,–,–

# Structural class: those above containing fluorine
SMILES,"lipid storage change, negative = inhibition",Potency,outcome
O=C(/C=C/Nc1ccccc1)C(F)(F)F,inconclusive: -16.8%,–,–
O=C(OCCNc1ncc(C(F)(F)F)cc1Cl)c1ccc(S(=O)(=O)N2CCOCC2)cc1,–,"inconclusive: 6.51 µM [falling, single point]",–
O=C(CC(c1cccs1)S(=O)(=O)c1ccccc1)c1ccc(F)cc1 (stereo not given),–,"inconclusive: 29.1 µM [falling, single point]",–

# Following part.

SMILES,"lipid storage change, negative = inhibition",Potency,outcome
COCCOC(=O)c1c(NC(=O)CNc2ccc(C)c(F)c2)sc(C(N)=O)c1C,inactive: 9.19%,–,–
O=C(c1ccc(Cn2cc(Br)cn2)cc1)N1N=C(C(F)F)CC1(O)C(F)F (stereo not given),inconclusive: -4.89%,–,–
CN(C)CC1CCCCC1OC(=O)c1ccc(Br)cc1 (stereo not given),inconclusive: 61.5%,–,–
CC(NC(=O)C1CCC1)c1ccc2c(c1)OCO2 (stereo not given),inconclusive: 35.6%,–,–
CC1CCCC(C)N1Cc1cn2ccccc2n1 (stereo not given),inconclusive: 39.9%,–,–
Cc1ccc(-n2nc(-c3ccco3)cc2C(=O)NCc2cccnc2)cc1,inconclusive: 23.8%,–,–
COc1ccc(S(=O)(=O)N2CCCC(C(=O)Nc3cccc(C(C)=O)c3)C2)cc1 (stereo not given),inconclusive: -39.2%,–,–
Cc1c(-c2ccccc2)oc2c(C(=O)N3CCN(c4ccccc4F)CC3)cccc2c1=O,inconclusive: -8.85%,–,–
COCC(=O)Nc1nc2ccc(S(C)(=O)=O)cc2s1,inconclusive: -168%,–,–
CCN(CC)S(=O)(=O)c1cccc(C(=O)OCC(=O)c2ccc3c(c2)NC(=O)CO3)c1,inconclusive: 4.11%,–,–
O=C(O)c1ccc(NS(=O)(=O)c2cc(Cl)ccc2Cl)cc1,inactive: -4.19%,–,–
CCOC(=O)N1CCN(C(=O)c2ccccc2NC(=O)c2ccc(C(C)(C)C)cc2)CC1,inconclusive: -35.5%,–,–
Cn1cc(/C=C2\SC(=S)N(NC(=O)c3ccccc3Cl)C2=O)c2ccccc21,inconclusive: -17.5%,–,–
O=C1NC(c2ccccc2)=C(c2ccccc2)C1=O,inconclusive: -0.353%,–,–
O=C(COc1ccc(Cl)cc1)OCC(=O)N1CCCCCC1,–,"inconclusive: 0.0041 µM [falling, full curve, poor fit]",–
CNC(=O)c1ccc(NC(=O)/C=C/c2cccc(F)c2)cc1,inconclusive: 13.9%,–,–
CCOC(=O)c1cnc(-n2cc(C)cn2)nc1Nc1ccccc1OCC,–,"inconclusive: 29.1 µM [falling, single point]",–
N#Cc1ccccc1S(=O)(=O)N1CCN(Cc2c(O)ccc3ccccc23)CC1,inconclusive: 3.01%,–,–
CC(=O)N/C(=C\c1ccc(C)o1)C(=O)NCc1ccccc1,inconclusive: 10.1%,–,–
CC1=C(C(=O)OC(C)C)C(c2cn(-c3ccccc3)nc2-c2cccs2)NC(=O)N1 (stereo not given),inconclusive: -0.691%,–,–
Cc1ccc[n+](CC(=O)Nc2ccc([N+](=O)[O-])cc2)c1,inconclusive: -55.2%,–,–
CC1=CC(=O)C(C(C)C)=C/C1=C(\c1cc(C(C)C)c(OP(=O)(O)O)cc1C)c1ccccc1C(=O)O,inconclusive: 58.7%,–,–
Cc1ccc(S(=O)(=O)/N=S(\C)C(C)C)cc1 (stereo not given),inconclusive: -2.27%,–,–
O=C1NC(Cc2c[nH]c3ccccc23)C(=O)N1Cc1ccccc1 (stereo not given),–,"inconclusive: 14.6 µM [activator, partial curve, poor fit]",–
O=C(CC(C(=O)O)c1c[nH]c2ccccc12)c1ccccc1 (stereo not given),–,"inconclusive: 18.4 µM [activator, single point]",–
Cc1ccc(S(=O)(=O)Nc2cccc3ncccc23)cc1,inconclusive: 15.7%,–,–
